Measurements reported in publication doi:10.1101/2020.06.24.169326.
Results are given in words; binding and its absence hold for the method and conditions named. In cells and extracts the contact can be indirect. Binding can be weak; no strength is given. Sequences can lack the tags named with a protein.

B1: ParB1 with T18 tag, expressed in E. coli (protein, UniProt Q9RYD8 1-288)
chain: MSKKSSLGRGLDALLTKKGEPVAQAGTGTQVQTLKIERIAQAAYQPRQVFEPESLAELAQSIREKGVLQPLLVRPRGDAFEIVAGERRWRASQLAGLTELPVMIRDLGDREALEIAIVENLQREDLGPLEEARAYQALLDQGLNQEGVAQAVGKGRSTVTNALRLLTLPEPVLRALDEGSISASHARAVLTQPEADRLWAFEQIRSRGLNVREAEALKRERGGRDKGQGAPIKVNPPRAYRQLELDLSRRTGTRVKITGEDKGRVELNYGSREELDRILQILGYEAEE
B2: ParB2 with T18 tag, expressed in E. coli (protein, UniProt Q9RZE7 1-293)
chain: MTRRRPERRRDLLGLLGETPVDLSQANDIRALPVNELKVGSTQPRRSFDLERLSELAESIRAHGVLQPLLVRSVDGQYEIVAGERRWRAAQLAGLAEVPVVVRQLSNEQARAAALIENLQRDNLNVIDEVDGKLELIALTLGLEREEARKRLMQLLRAVPGDEHEQLDQVFRSMGETWRTFAKNKLRILNWPQPVLEALRAGLPLTLGSVVASAPPERQAELLKLAQNGASRSQLLQALQTPSQTSAVTPEHFAKVLSSKRFLSGLDTPTREALDRWLARMPERVRQAIDEQS

Biological target: His-tagged Deinococcus radiodurans topoisomerase IB expressed from pETtopoIB in E. coli (Deinococcus radiodurans)
Assay: co-IP

| Binder | binding |
| --- | --- |
| B1 | binds |
| B2 | binds |
